Protein sequences, listed by entry. Tags and fused reporters are not part of them.
UniProt Q0JBA9, entry or part of it: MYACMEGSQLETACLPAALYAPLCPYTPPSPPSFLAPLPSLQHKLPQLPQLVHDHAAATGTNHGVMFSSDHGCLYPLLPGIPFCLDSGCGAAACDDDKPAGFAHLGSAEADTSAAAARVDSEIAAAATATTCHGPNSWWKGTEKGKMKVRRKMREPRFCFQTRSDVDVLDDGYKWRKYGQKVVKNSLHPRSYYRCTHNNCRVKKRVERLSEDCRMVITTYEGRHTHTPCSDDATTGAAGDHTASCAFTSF

The other results are listed elsewhere or left out.
The sequences below were run against OsWRKY34 (Oryza sativa, UniProt Q0JBA9 1-250) (assay: protein-binding microarray (RPBM); PBS, 2% BSA, 51.3 ng/ul salmon testes DNA, 50 uM zinc acetate, 200 nM TF, 25 C, 1 h; high values mean tight binding). Conditions: protein: recombinant; tags: N-terminal polyhistidine and DsRed monomer fusion (pET32a); label: CyDye5-dUTP incorporated in the synthesized complementary strand; 3' TTTTT single-stranded linker to array surface; dsDNA, one strand shown.
Summary of the method: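 In PBS with 2% BSA, salmon testes DNA and 50 µM zinc acetate, 200 nM protein was incubated on a custom Agilent array at 25 °C for 1 h and then washed off. The array had been made double-stranded by primer extension with Cy5-dUTP and blocked with 2% BSA. The proteins were transcription factors fused N-terminally to polyhistidine and DsRed, expressed in E. coli BL21-CodonPlus and purified on Ni–NTA. The binding signal is per-feature fluorescence intensity (arbitrary units) from an Axon 4000B scanner.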
In the case of “GAGGAGCTCGCCAATTGTTCCGCGTCATATCGCCAGCTCTCGGAGTCACCTAGTGCAG”, the binding signal is reported as 9060 fluorescence intensity (a.u.).
“CATCCCTGACTTTTTTTTTAAATTTTCCGTTTCTCCTTTTCGGAGTCACCTAGTGCAG” was tested, and the binding signal was 9550 fluorescence intensity (a.u.).
For “ACTGTCCGCATCCTCGTTGCCGCCGTCGTGGCACATCGCGCGGAGTCACCTAGTGCAG”, the binding signal was 8660 fluorescence intensity (a.u.).
“AACATGTGAAAGTTTCTGTTCTTTTCATCTTCTTGACGACCGGAGTCACCTAGTGCAG” was tested, and the binding signal was 8470 fluorescence intensity (a.u.).
In the case of “GAAGTGGTGGTGGGGTGGTAGTAGTAGTTTGGTAATAGTACGGAGTCACCTAGTGCAG”, the binding signal is reported as 12100 fluorescence intensity (a.u.).
“TAGCAACTGAGGTTTCTCTTGGCCTTTTCATATTGTCATACGGAGTCACCTAGTGCAG” was tested, and the binding signal was 10300 fluorescence intensity (a.u.).
For “TGTGGATGATGGTATTTTTTTTCCTTTTTCCTAGTTACGACGGAGTCACCTAGTGCAG”, the binding signal was 9100 fluorescence intensity (a.u.).
With “TTTAGCGGGTTGATGTGACATACTTGTATTAGTTTTTAGGCGGAGTCACCTAGTGCAG” the binding signal was 8560 fluorescence intensity (a.u.).
In the case of “CTTCAATACCATTTATCTACATATTAGTCTTATTATGTTTCGGAGTCACCTAGTGCAG”, the binding signal is reported as 9920 fluorescence intensity (a.u.).
With “CTTTCTCGTTCTATGTCCGTGTCTCGTGTTCTTGAAGCTCCGGAGTCACCTAGTGCAG” the binding signal was 9040 fluorescence intensity (a.u.).
With “CCGTTTGAGTTTATTTTTTACATGGTTGGTTCCTGTGAGTCGGAGTCACCTAGTGCAG” the binding signal was 8360 fluorescence intensity (a.u.).
For “CTTCGCAGTGGGCCCCACATGTCATAGAGCGTGGGTAGGGCGGAGTCACCTAGTGCAG”, the binding signal was 8300 fluorescence intensity (a.u.).
“GAGGAGGGTGGAGGGGAGGGTGAAGGCAGTTTTGGAGGCGCGGAGTCACCTAGTGCAG” was tested, and the binding signal was 15500 fluorescence intensity (a.u.).
“GCGACAACAACTTCGCATGCATTTGATATTTCTTCTGTAACGGAGTCACCTAGTGCAG” was tested, and the binding signal was 9270 fluorescence intensity (a.u.).
With “CCCTGATCACACGTTCCACACCTCGCAGCGCCACCACATCCGGAGTCACCTAGTGCAG” the binding signal was 9260 fluorescence intensity (a.u.).
For “CCTGGTAGCCATGTACTTTAGTGCCCGTTGGTGGTTTATACGGAGTCACCTAGTGCAG”, the binding signal was 8540 fluorescence intensity (a.u.).
“GTGCAACTGGCATCTACACTTGTATTATCTGTGCCAGCTCCGGAGTCACCTAGTGCAG” was tested, and the binding signal was 8220 fluorescence intensity (a.u.).
For “CAAACTTTCAATTTTTCCGTCACATCGTTTTAATTTATTTCGGAGTCACCTAGTGCAG”, the binding signal was 8720 fluorescence intensity (a.u.).
In the case of “AACACATCACACAAGCAATAGGCATCTCTCTCTTCTTTCTCGGAGTCACCTAGTGCAG”, the binding signal is reported as 11400 fluorescence intensity (a.u.).
In the case of “AATACGTGACCGTCCACCCTTGTACACTGTCCGGACAGACCGGAGTCACCTAGTGCAG”, the binding signal is reported as 8100 fluorescence intensity (a.u.).
“TTTGACCTCGGCTCGATCGACCATCCCGCGGAGGAGACGACGGAGTCACCTAGTGCAG” was tested, and the binding signal was 9230 fluorescence intensity (a.u.).
For “CACCTGTCACTCGCTCACACATCCCAGCGCTTTACAGTAGCGGAGTCACCTAGTGCAG”, the binding signal was 9690 fluorescence intensity (a.u.).
With “GCAACTGCCCTACCATGTATGATGCTCCTGTATTCTGTCTCGGAGTCACCTAGTGCAG” the binding signal was 9210 fluorescence intensity (a.u.).
“CTAATTTTTAGACCTTGATTGGCTTCTTTCAGGCTGCTCACGGAGTCACCTAGTGCAG” was tested, and the binding signal was 8060 fluorescence intensity (a.u.).
In the case of “CGCTCACCCACCGTCGCTCCGCCCGCCACCCGCCACCCACCGGAGTCACCTAGTGCAG”, the binding signal is reported as 10900 fluorescence intensity (a.u.).
With “TTGTCCCCAGGCAATGACCGTATGACCAATTGCATTGTTTCGGAGTCACCTAGTGCAG” the binding signal was 8120 fluorescence intensity (a.u.).
“AATCTTCTAACCACCGTACGTTCTCCTCGCACTATAAATACGGAGTCACCTAGTGCAG” was tested, and the binding signal was 11500 fluorescence intensity (a.u.).
“TATATAATGAAATGTGGTGTGGTGGTGTAGATGGCGTTGTCGGAGTCACCTAGTGCAG” was tested, and the binding signal was 8160 fluorescence intensity (a.u.).
For “CACTGGCATGTCATGTCACATTATCACGGCACCGGCCGGCCGGAGTCACCTAGTGCAG”, the binding signal was 8060 fluorescence intensity (a.u.).
In the case of “TCTTCCCCGTCGCCGCGCACCTCCCGATCCCTCCCTCCGCCGGAGTCACCTAGTGCAG”, the binding signal is reported as 8360 fluorescence intensity (a.u.).
With “AATGATTACAACCTACCTCTTCTCAGCGGGGTGTCCATTACGGAGTCACCTAGTGCAG” the binding signal was 8260 fluorescence intensity (a.u.).
With “GTTGATCGCGCATGTTGGGTTTTCTTGGCTCCCGAATCCGCGGAGTCACCTAGTGCAG” the binding signal was 9030 fluorescence intensity (a.u.).
For “ACCACTTAATCTTTATCTTTGTTAGATTCATTACTACTATCGGAGTCACCTAGTGCAG”, the binding signal was 8310 fluorescence intensity (a.u.).
With “GCCTTTGAGCTCATTCTTCCCCATCTTCTCTTCTTATTCTCGGAGTCACCTAGTGCAG” the binding signal was 13300 fluorescence intensity (a.u.).
In the case of “TCTCTTTCTTTCCTTAACTCTCTTTCTCTACTCTCCACTCCGGAGTCACCTAGTGCAG”, the binding signal is reported as 9580 fluorescence intensity (a.u.).
With “AAAACCCTGTGATTTTCTGCAACTTTCTACCTATTTTTTTCGGAGTCACCTAGTGCAG” the binding signal was 11200 fluorescence intensity (a.u.).
For “CTATATATATACCTCCTCACCCCACAGGCCACACCCGTCCCGGAGTCACCTAGTGCAG”, the binding signal was 9020 fluorescence intensity (a.u.).
In the case of “CTCTACTGTTCTGTGACCGTGCGCGTCGTCTGTCCGTCCACGGAGTCACCTAGTGCAG”, the binding signal is reported as 8070 fluorescence intensity (a.u.).
In the case of “CAATTGGTTGCATTTTTCTCCTCAACTATCTTAATACAATCGGAGTCACCTAGTGCAG”, the binding signal is reported as 9830 fluorescence intensity (a.u.).
“GCCACCGGCCGTTCTACATCTCGCGCGCGGCCTCCGGTCGCGGAGTCACCTAGTGCAG” was tested, and the binding signal was 9430 fluorescence intensity (a.u.).
In the case of “TTTTTCTACATGTTCACAATCCATAGAATTTAAATTGCCACGGAGTCACCTAGTGCAG”, the binding signal is reported as 8340 fluorescence intensity (a.u.).
“ATTTTTTGGTAATTCGGTCTTTTCGGTCTATTCGGTTACCCGGAGTCACCTAGTGCAG” was tested, and the binding signal was 8730 fluorescence intensity (a.u.).

From article PMC7819943, “Rice protein-binding microarrays: a tool to detect cis-acting elements near promoter regions in rice”
